Publication PMC10445727

Chains of the proteins cited; added tags and fusions are not shown.
UniProt Q9BSJ5: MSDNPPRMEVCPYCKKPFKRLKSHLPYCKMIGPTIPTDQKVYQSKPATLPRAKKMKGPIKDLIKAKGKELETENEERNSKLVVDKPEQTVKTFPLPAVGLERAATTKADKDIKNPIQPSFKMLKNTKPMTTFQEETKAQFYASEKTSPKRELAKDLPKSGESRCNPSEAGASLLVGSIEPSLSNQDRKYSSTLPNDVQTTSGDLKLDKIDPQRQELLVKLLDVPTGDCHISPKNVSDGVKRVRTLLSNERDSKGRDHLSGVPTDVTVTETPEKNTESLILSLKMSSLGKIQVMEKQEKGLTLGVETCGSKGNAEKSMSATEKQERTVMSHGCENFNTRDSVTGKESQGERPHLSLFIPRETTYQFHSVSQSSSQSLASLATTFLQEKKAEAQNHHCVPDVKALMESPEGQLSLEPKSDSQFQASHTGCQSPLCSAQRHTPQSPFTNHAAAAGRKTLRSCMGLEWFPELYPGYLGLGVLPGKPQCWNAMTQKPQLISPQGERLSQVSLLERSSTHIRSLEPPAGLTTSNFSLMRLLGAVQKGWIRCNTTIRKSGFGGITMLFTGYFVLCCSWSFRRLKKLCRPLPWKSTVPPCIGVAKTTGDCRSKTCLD

Columns and labels:
[1] = biological target: C17orf80–BirA*(N), N-terminally tagged C17orf80–BirA* fusion (human), Q9BSJ5; assay: proximity labelling; BioID: Flp-In T-REx 293 cells expressing C17orf80–BirA* fusions, induced with AnTET (1 ng/ml N-term, 3 ng/ml C-term) and given biotin for 22–24 h; control: the same cells with biotin but without AnTET; streptavidin–agarose pulldown from total cell lysates, on-bead trypsin digestion, LC-MS/MS, four biological replicates, FDR<0.05, S0=0.1; conditions: remark: other sources report otherwise
[2] = biological target: C17orf80–BirA*(N), N-terminally tagged C17orf80–BirA* fusion (human) (UniProt Q9BSJ5); assay: as above

binding [1]: binds
B1: mitochondrial transcription factor A (TFAM), Q00059 43-246 (protein)
chain: SSVLASCPKKPVSSYLRFSKEQLPIFKAQNPDAKTTELIRRIAQRWRELPDSKKKIYQDAYRAEWQVYKEEISRFKEQLTPSQIMSLEKEIMDKHLKRKAMTKKKELTLLGKPKRPRSAYNVYVAERFQEAKGDSPQEKLKTVKENWKNLSDSEKELYIQHAKEDETRYHNEMKSWEEQMIEVGRKDLLRRTIKKQRKYGAEEC

binding [2]: binds
B2: mitochondrial single-strand binding protein (mtSSB) (protein, UniProt Q04837 17-148)
chain: ESETTTSLVLERSLNRVHLLGRVGQDPVLRQVEGKNPVTIFSLATNEMWRSGDSEVYQLGDVSQKTTWHRISVFRPGLRDVAYQYVKKGSRIYLEGKIDYGEYMDKNNVRRQATTIIADNIIFLSDQTKEKE

binding [2]: binds
B3: mitochondrial replicative helicase Twinkle (protein, UniProt Q96RR1 32-684)
chain: APGPPRRRYRKETLQALDMPVLPVTATEIRQYLRGHGIPFQDGHSCLRALSPFAESSQLKGQTGVTTSFSLFIDKTTGHFLCMTSLAEGSWEDFQASVEGRGDGAREGFLLSKAPEFEDSEEVRRIWNRAIPLWELPDQEEVQLADTMFGLTKVTDDTLKRFSVRYLRPARSLVFPWFSPGGSGLRGLKLLEAKCQGDGVSYEETTIPRPSAYHNLFGLPLISRRDAEVVLTSRELDSLALNQSTGLPTLTLPRGTTCLPPALLPYLEQFRRIVFWLGDDLRSWEAAKLFARKLNPKRCFLVRPGDQQPRPLEALNGGFNLSRILRTALPAWHKSIVSFRQLREEVLGELSNVEQAAGLRWSRFPDLNRILKGHRKGELTVFTGPTGSGKTTFISEYALDLCSQGVNTLWGSFEISNVRLARVMLTQFAEGRLEDQLDKYDHWADRFEDLPLYFMTFHGQQSIRTVIDTMQHAVYVYDICHVIIDNLQFMMGHEQLSTDRIAAQDYIIGVFRKFATDNNCHVTLVIHPRKEDDDKELQTASIFGSAKASQEADNVLILQDRKLVTGPGKRYLQVSKNRFDGDVGVFPLEFNKNSLTFSIPPKNKARLKKIKDDTGPVAKKPSSGKKGATTQNSEICSGQAPTPDQPDTSKRSK

Results are given in words; binding and its absence hold for the method and conditions named. Binding seen in cells or lysates may run through a third protein. Here binding means that the protein was enriched with, or labelled near, the bait; the list need not be complete. Each block holds one binder with its values, some of them ahead of it.
